This is one part of the list. Single values are uncertain, as repeats are few or missing.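 Cells were imaged in 1,536-well plates, and nuclei stained with an antibody against cleaved PARP were counted against all DNA-stained nuclei to give the apoptosis fraction. Screening doses were chosen to leave most cells alive, and resting and induced cleaved-PARP levels differ strongly between cell lines.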
Legend:
Assay in all cases: cleaved PARP positive nuclei fraction relative to DMSO control; melanoma cells; higher = more apoptosis
Conditions in all cases: library dose: low library concentration; 72 h
MZ2-MEL = system: MZ2-MEL
MeWo = system: MeWo
RPMI7951 = system: RPMI7951
RVH-421 = system: RVH-421
SkMel28 = system: SkMel28
SkMel30 = system: SkMel30
SkMel5 = system: SkMel5
UACC257 = system: UACC257
UACC62 = system: UACC62
WM115 = system: WM115
WM1716 = system: WM1716
WM1745 = system: WM1745
WM3526 = system: WM3526
WM3619 = system: WM3619
WM451Lu = system: WM451Lu

Row | SMILES | cleaved PARP positive nuclei fraction (MZ2-MEL) | cleaved PARP positive nuclei fraction (MeWo) | cleaved PARP positive nuclei fraction (RPMI7951) | cleaved PARP positive nuclei fraction (RVH-421) | cleaved PARP positive nuclei fraction (SkMel28) | cleaved PARP positive nuclei fraction (SkMel30) | cleaved PARP positive nuclei fraction (SkMel5) | cleaved PARP positive nuclei fraction (UACC257) | cleaved PARP positive nuclei fraction (UACC62) | cleaved PARP positive nuclei fraction (WM115) | cleaved PARP positive nuclei fraction (WM1716) | cleaved PARP positive nuclei fraction (WM1745) | cleaved PARP positive nuclei fraction (WM3526) | cleaved PARP positive nuclei fraction (WM3619) | cleaved PARP positive nuclei fraction (WM451Lu)
1 | C[C@]12O[C@H](C[C@]1(O)CO)n1c3ccccc3c3c4c(c5c6ccccc6n2c5c31)CNC4=O [Lestaurtinib] + Cc1ccc(NC(=O)c2cccc(N(C)C)c2)cc1NC(=O)c1ccc(O)cc1 [ZM336372] (first compound 0.004 µM, partner dose 2 µM) | 67.3% | 96.2% | 145% | 87.1% | 108% | 72.6% | 143% | 504% | 99.9% | 122% | 92% | 90.7% | 85.9% | 96.4% | 125%
2 | Cn1cncc1[C@@](N)(c1ccc(Cl)cc1)c1ccc2c(c1)c(-c1cccc(Cl)c1)cc(=O)n2C [tipifarnib] + Cc1cc(SCc2sc(-c3ccc(C(F)(F)F)c(F)c3)nc2C)ccc1OCC(=O)O [GW0742] (first compound 0.01 µM, partner dose 2 µM) | 138% | 43.3% | 135% | 176% | 139% | 24.6% | 35.9% | 205% | 596% | 138% | 92.8% | 100% | 78.5% | 342% | 75.9%
3 | Cc1cc(SCc2sc(-c3ccc(C(F)(F)F)c(F)c3)nc2C)ccc1OCC(=O)O + CC(C)CCN1c2nc(Nc3cc(F)c(O)c(F)c3)ncc2N(C)C(=O)C1C [BID1870] (first compound 2 µM, partner dose 0.2 µM) | 165% | 113% | 36.3% | 141% | 111% | 33.9% | 127% | 168% | 77.4% | 79.2% | 113% | 120% | 63.4% | 71.4% | 242%
4 | COCC[n+]1c2c(n(Cc3cnccn3)c1C)C(=O)c1ccccc1C2=O + Cc1cc(SCc2sc(-c3ccc(C(F)(F)F)c(F)c3)nc2C)ccc1OCC(=O)O [GW0742] (first compound 0.0004 µM, partner dose 2 µM) | 354% | 69.2% | 86.7% | 76.1% | 126% | 26.6% | 77.6% | 38.8% | 54.6% | 44.5% | 105% | 88.9% | 68.4% | 74.4% | 98.6%
5 | C[C@]12O[C@H](C[C@]1(O)CO)n1c3ccccc3c3c4c(c5c6ccccc6n2c5c31)CNC4=O [Lestaurtinib] + C/C(O)=C(\C#N)C(=O)Nc1cc(Br)ccc1Br [LFM-A13] (first compound 0.004 µM, partner dose 2 µM) | 67.7% | 96% | 35.1% | 93.9% | 161% | 231% | 70.7% | 75.8% | 194% | 91.5% | 183% | 101% | 92.6% | 106% | 61.5%
6 | C[As](C)SC[C@H](NC(=O)CC[C@H](N)C(=O)O)C(=O)NCC(=O)O [Darinaparsin] + CC(C)CCN1c2nc(Nc3cc(F)c(O)c(F)c3)ncc2N(C)C(=O)C1C [BID1870] (first compound 0.4 µM, partner dose 0.2 µM) | 102% | 59.8% | 164% | 98.1% | 143% | 31.5% | 89.5% | 164% | 44.8% | 102% | 148% | 94.6% | 67% | 94.2% | 59.5%
7 | COC(=O)c1sccc1S(=O)(=O)Nc1ccc(Nc2ccccc2)cc1OC + O=C(Oc1ccc([N+](=O)[O-])cc1)N1CCC(C(O)(c2ccc3c(c2)OCO3)c2ccc3c(c2)OCO3)CC1 [JZL184] (first compound 1 µM, partner dose 1 µM) | 78.7% | 77.2% | 40.6% | 57.8% | 112% | 52.2% | 113% | 62.8% | 92% | 140% | 72.2% | 97.6% | 79.1% | 82.8% | 273%
8 | C[C@]1(c2nc3c(C(N)=O)cccc3[nH]2)CCCN1 [Veliparib] + O=C(Oc1ccc([N+](=O)[O-])cc1)N1CCC(C(O)(c2ccc3c(c2)OCO3)c2ccc3c(c2)OCO3)CC1 [JZL184] (first compound 1.4 µM, partner dose 1 µM) | 220% | 26% | 68.5% | 124% | 106% | 16.8% | 104% | 139% | 119% | 395% | 284% | 117% | 141% | 124% | 58.5%
9 | C#Cc1cccc(Nc2ncnc3cc(OCCOC)c(OCCOC)cc23)c1 [erlotinib] + O=C(Oc1ccc([N+](=O)[O-])cc1)N1CCC(C(O)(c2ccc3c(c2)OCO3)c2ccc3c(c2)OCO3)CC1 [JZL184] (first compound 0.8 µM, partner dose 1 µM) | 184% | 107% | 85.6% | 144% | 192% | 69.8% | 172% | 178% | 194% | 69.8% | 50.7% | 117% | 78.3% | 97.8% | 80.6%
10 | CN(C)S(=O)(=O)c1ccc2c(c1)/C(=C/c1cc3c([nH]1)CCCC3)C(=O)N2 + C/C(O)=C(\C#N)C(=O)Nc1cc(Br)ccc1Br [LFM-A13] (first compound 0.4 µM, partner dose 2 µM) | 89.1% | 59.6% | 92% | 18.6% | 152% | 29.7% | 68.5% | 73.2% | 198% | 38.1% | 103% | 135% | 74.9% | 91.1% | 149%
11 | COc1cc2c(Oc3ccc4[nH]c(C)cc4c3F)ncnc2cc1OCCCN1CCCC1 [cediranib] + O=C(Oc1ccc([N+](=O)[O-])cc1)N1CCC(C(O)(c2ccc3c(c2)OCO3)c2ccc3c(c2)OCO3)CC1 [JZL184] (first compound 0.4 µM, partner dose 1 µM) | 118% | 47% | 79% | 169% | 74.7% | 20.1% | 27.8% | 64.8% | 82.9% | 261% | 95.8% | 105% | 81.2% | 77.7% | 65.6%
12 | Cc1cc(SCc2sc(-c3ccc(C(F)(F)F)c(F)c3)nc2C)ccc1OCC(=O)O + CCCCCCCCCCCC1=C(O)C(=O)C=C(O)C1=O [Embelin] (first compound 2 µM, partner dose 1.2 µM) | 130% | 65.6% | 87.7% | 25.5% | 71.6% | 36.4% | 55.3% | 102% | 145% | 67.1% | 71.6% | 103% | 59% | 72.5% | 251%
13 | Cc1cc([N+](=O)[O-])ccc1NS(=O)(=O)c1cc(Cl)ccc1Cl + O=C(Oc1ccc([N+](=O)[O-])cc1)N1CCC(C(O)(c2ccc3c(c2)OCO3)c2ccc3c(c2)OCO3)CC1 [JZL184] (first compound 1 µM, partner dose 1 µM) | 144% | 38% | 122% | 370% | 138% | 37.4% | 79.1% | 182% | 163% | 199% | 125% | 111% | 64.4% | 84.2% | 131%
14 | O=C(CCCCCCC(=O)Nc1ccccc1)NO [vorinostat] + Cc1cc(SCc2sc(-c3ccc(C(F)(F)F)c(F)c3)nc2C)ccc1OCC(=O)O [GW0742] (first compound 0.08 µM, partner dose 2 µM) | 67.8% | 24.3% | 24.5% | 12.1% | 352% | 12.5% | 82.3% | 101% | 80.1% | 121% | 138% | 102% | 52.1% | 89.8% | 72.4%
15 | CC1(C)NC(=O)N(c2ccc([N+](=O)[O-])c(C(F)(F)F)c2)C1=O [nilutamide] + Cc1cc(SCc2sc(-c3ccc(C(F)(F)F)c(F)c3)nc2C)ccc1OCC(=O)O [GW0742] (first compound 1 µM, partner dose 2 µM) | 76.9% | 180% | 78.6% | 80.2% | 52.8% | 39.6% | 77.4% | 153% | 154% | 93.7% | 92.8% | 108% | 76.8% | 82.8% | 37%
16 | C[C@]12O[C@H](C[C@]1(O)CO)n1c3ccccc3c3c4c(c5c6ccccc6n2c5c31)CNC4=O [Lestaurtinib] + O=C1NC(=O)/C(=C/c2ccc(-c3ccc(F)cc3O)o2)S1 [AS252424] (first compound 0.004 µM, partner dose 1 µM) | 92.5% | 158% | 127% | 100% | 111% | 220% | 130% | 251% | 69.8% | 29.6% | 183% | 91.9% | 157% | 91% | 35.6%
17 | C[As](C)SC[C@H](NC(=O)CC[C@H](N)C(=O)O)C(=O)NCC(=O)O [Darinaparsin] + COc1cc2ncnc(Nc3ccc(Oc4ccccc4)cc3)c2cc1OC [SrcI1] (first compound 0.4 µM, partner dose 2 µM) | 86.1% | 28.1% | 109% | 143% | 193% | 178% | 76.7% | 171% | 64.6% | 39.8% | 104% | 121% | 134% | 76.2% | 328%
18 | Cn1nnc2c(C(N)=O)ncn2c1=O [temozolomide] + C/C(O)=C(\C#N)C(=O)Nc1cc(Br)ccc1Br [LFM-A13] (first compound 2 µM, partner dose 2 µM) | 99% | 101% | 267% | 75.1% | 34.6% | 33.1% | 30.3% | 96.8% | 90.6% | 47.4% | 161% | 90.9% | 79.8% | 322% | 170%
19 | C[C@]12O[C@H](C[C@]1(O)CO)n1c3ccccc3c3c4c(c5c6ccccc6n2c5c31)CNC4=O [Lestaurtinib] + O=C(Oc1ccc([N+](=O)[O-])cc1)N1CCC(C(O)(c2ccc3c(c2)OCO3)c2ccc3c(c2)OCO3)CC1 [JZL184] (first compound 0.004 µM, partner dose 1 µM) | 223% | 104% | 45.1% | 74.2% | 193% | 76.5% | 78.3% | 163% | 74.8% | 118% | 74.6% | 186% | 74.9% | 82% | 104%

Full records, quoted from the list. Order of values: cleaved PARP positive nuclei fraction (MZ2-MEL) | cleaved PARP positive nuclei fraction (MeWo) | cleaved PARP positive nuclei fraction (RPMI7951) | cleaved PARP positive nuclei fraction (RVH-421) | cleaved PARP positive nuclei fraction (SkMel28) | cleaved PARP positive nuclei fraction (SkMel30) | cleaved PARP positive nuclei fraction (SkMel5) | cleaved PARP positive nuclei fraction (UACC257) | cleaved PARP positive nuclei fraction (UACC62) | cleaved PARP positive nuclei fraction (WM115) | cleaved PARP positive nuclei fraction (WM1716) | cleaved PARP positive nuclei fraction (WM1745) | cleaved PARP positive nuclei fraction (WM3526) | cleaved PARP positive nuclei fraction (WM3619) | cleaved PARP positive nuclei fraction (WM451Lu)
O=C(CCCCCCC(=O)Nc1ccccc1)NO [vorinostat] + Cc1cc(SCc2sc(-c3ccc(C(F)(F)F)c(F)c3)nc2C)ccc1OCC(=O)O [GW0742] (first compound 0.08 µM, partner dose 2 µM) in the list: 67.8% | 24.3% | 24.5% | 12.1% | 352% | 12.5% | 82.3% | 101% | 80.1% | 121% | 138% | 102% | 52.1% | 89.8% | 72.4%
Cc1cc([N+](=O)[O-])ccc1NS(=O)(=O)c1cc(Cl)ccc1Cl + O=C(Oc1ccc([N+](=O)[O-])cc1)N1CCC(C(O)(c2ccc3c(c2)OCO3)c2ccc3c(c2)OCO3)CC1 [JZL184] (first compound 1 µM, partner dose 1 µM) in the list: 144% | 38% | 122% | 370% | 138% | 37.4% | 79.1% | 182% | 163% | 199% | 125% | 111% | 64.4% | 84.2% | 131%

Source: the supplement of paper PMC4604168 (melanoma cell lines)
